Laboratory results: patent publication US20250222125A1 (BeiGene, Ltd., priority 2024, published 2025)

Test: general procedure: solution-phase peptide synthesis; HATU/DIEA
Conditions: late stage modification step

Substance | step yield
Benzyl (S)-11-benzyl-1-(9H-fluoren-9-yl)-20,20-dimethyl-3,6,9,12,15-pentaoxo-2,18-dioxa-4,7,10,13,16-pentaazahenicosan-21-oate | 29.2%
(S)-11-benzyl-1-(9H-fluoren-9-yl)-20,20-dimethyl-3,6,9,12,15-pentaoxo-2,18-dioxa-4,7,10,13,16-pentaazahenicosan-21-oic Acid | 84.8%
